This test deals with Klebsiella pneumoniae nifU gene product (Klebsiella pneumoniae) (UniProt P05343). Description: co-purification; gel filtration on HiPrep Sephacryl S-200 HR, NIFU/S complex eluted at about 140 kDa; the two also co-eluted on RESOURCE Q anion exchange.

Chains of the proteins cited; added tags and fusions are not shown.
UniProt P05343: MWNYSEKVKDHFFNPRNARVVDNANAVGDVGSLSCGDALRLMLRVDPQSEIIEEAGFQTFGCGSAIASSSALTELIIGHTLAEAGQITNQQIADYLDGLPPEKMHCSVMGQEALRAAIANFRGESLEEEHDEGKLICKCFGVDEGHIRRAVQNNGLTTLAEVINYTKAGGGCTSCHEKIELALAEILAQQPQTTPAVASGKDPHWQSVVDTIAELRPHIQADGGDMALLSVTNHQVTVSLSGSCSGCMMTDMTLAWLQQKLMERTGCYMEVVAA
UniProt P05344: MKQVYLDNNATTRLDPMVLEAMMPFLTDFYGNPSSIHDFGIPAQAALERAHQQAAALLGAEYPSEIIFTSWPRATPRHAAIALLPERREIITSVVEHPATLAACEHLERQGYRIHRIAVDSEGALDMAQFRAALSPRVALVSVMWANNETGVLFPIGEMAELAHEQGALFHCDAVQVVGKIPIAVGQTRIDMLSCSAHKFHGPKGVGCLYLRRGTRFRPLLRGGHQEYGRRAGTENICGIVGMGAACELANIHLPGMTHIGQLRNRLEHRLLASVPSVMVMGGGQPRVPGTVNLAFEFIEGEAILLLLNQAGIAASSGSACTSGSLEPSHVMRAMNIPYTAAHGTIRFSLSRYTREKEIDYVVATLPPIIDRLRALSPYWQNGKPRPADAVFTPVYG

Experimental findings from US20030096382A1 are described below.

These are yes or no findings as the source states them, for the method shown. In cells and extracts the contact can be indirect. Some entries that bind do so weakly or less than the wild type.

Turning to “Klebsiella pneumoniae nifS gene product (from UniProt P05344 1-397) (enzyme)”, the binding entry is on record as “binds”.
